According to PMC7473711, “Characterization of the different oligomeric states of the DAN family antagonists SOSTDC1 and SOST” (Biochemical Journal, 2020):
No constants are given. Whether binding was seen depends on the method and setting.

Protein sequences, listed by entry. Tags and fused reporters are not part of them. Residues count along the entry.
UniProt Q9BQB4, residues 24-213: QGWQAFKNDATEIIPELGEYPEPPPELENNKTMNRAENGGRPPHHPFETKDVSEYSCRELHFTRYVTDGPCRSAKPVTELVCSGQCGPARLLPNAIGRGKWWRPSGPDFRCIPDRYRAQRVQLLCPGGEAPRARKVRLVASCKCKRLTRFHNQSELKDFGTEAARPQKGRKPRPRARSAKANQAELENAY

Tests used:
[1] = biological target: human SOST, deglycosylated (human) (UniProt Q9BQB4); test: AUC; sedimentation velocity, 48,000 rpm, 20°C, 20 mM HEPES, 150 mM NaCl, pH 7.5; cSOSTDC1 at 500 µg/ml; c(s) and c(M) analysis in SEDFIT; both purified
[2] = biological target: human SOST, glycosylated (human) (UniProt Q9BQB4); test: as above
[3] = biological target: human SOST, glycosylated (human) (UniProt Q9BQB4); test: cross-linking; 4 µg purified protein, 0.01% (v/v) glutaraldehyde, 20 min, room temperature, 20 mM HEPES, 150 mM NaCl, pH 7.5; non-reducing SDS-PAGE; self-association; both purified
[4] = biological target: human SOST, glycosylated (human) (UniProt Q9BQB4); test: SEC; SEC of hSOST, Superdex S200 10/300, 20 mM HEPES, 1 M NaCl, 1 mM EDTA, pH 7.5 (final step of purification, Figure 6B); both purified

Substance	binding [1]	binding [2]	binding [3]	binding [4]
human SOST, deglycosylated (from UniProt Q9BQB4 24-213)	no binding	–	–	–
human SOST, glycosylated (from UniProt Q9BQB4 24-213)	–	no binding	no binding	no binding
